# Values joined by “and” are separate entries in the source; they are usually repeats but may differ in a detail not shown here. Equal values may be shown once. Some of the results follow. Single values are uncertain here, since repeats match poorly.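 HEK293T cells were given each compound shortly before transfection with a reporter in which red mCherry is followed by the SARS-CoV-2 frameshift element and then GFP in the −1 frame, so GFP appears only after frameshifting.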
# Test system: HEK293T
# Test: percent viability (nuclei count) relative to control; higher = more viable cells
# Conditions: 10 µM; 24 h
row,Structure (SMILES),percent viability
1,C[C@@H](O)[C@H]1C(=O)N2C(C(=O)O)=C(S[C@@H]3CN[C@H](C(=O)Nc4cccc(C(=O)O)c4)C3)[C@H](C)[C@H]12 [ertapenem],105%
2,C#C[C@]1(O)CC[C@H]2[C@@H]3CCC4=C(CCC(=O)C4)[C@H]3CC[C@@]21C,298%
3,COc1ccc(-c2nc(C(F)(F)F)[nH]c2-c2ccc(OC)cc2)cc1 [flumizole],154%
4,CC(=O)[C@H]1CC[C@H]2[C@@H]3C[C@H](C)C4=CC(=O)CC[C@]4(C)[C@H]3[C@@H](O)C[C@]12C [medrysone],273% and 310%
5,O=C1CC[C@@H](C(=O)Oc2ccc(O)cc2)N1 [pidobenzone],176%
6,CC1Oc2ccc(Cl)cc2N(CC(O)CO)C1=O (stereo not drawn) [diproxadol],127%
7,CNC1Cc2ccccc2N(C)c2ccccc21 (stereo not drawn) [metapramine],114%
8,NCCC[C@H](N)CC(=O)N[C@H]1CNC(=O)[C@H]([C@H]2C[C@H](O)NC(N)=N2)NC(=O)/C(=C/NC(N)=O)NC(=O)[C@H](CO)NC(=O)[C@H](CO)NC1=O [viomycin],97.6%
9,Cc1cc(C(=O)NNCc2ccccc2)no1 [isocarboxazid],69.1%
10,C[C@H]1CN(C[C@H](Cc2ccccc2)C(=O)NCC(=O)O)CC[C@@]1(C)c1cccc(O)c1 [Entereg],205%
11,CN1CCc2cccc3c2[C@H]1Cc1ccc(O)c(O)c1-3,297%
12,COc1ccc(CCNCC(O)COc2cccc(C)c2)cc1OC (stereo not drawn) [bevantolol],322%
13,O=C(O[C@H]1CN2CCC1CC2)N1CCc2ccccc2[C@@H]1c1ccccc1,312%

# Exported tab-delimited: entries from further up.
row	Structure (SMILES)	percent viability
6	CC1Oc2ccc(Cl)cc2N(CC(O)CO)C1=O (stereo not drawn) [diproxadol]	127%
7	CNC1Cc2ccccc2N(C)c2ccccc21 (stereo not drawn) [metapramine]	114%

# Source: the supplement of paper PMC8256030
